Results are given in words; binding and its absence hold for the method and conditions named. In cells and extracts the contact can be indirect. These calls come from enrichment with a bait or labelling near it, and not all partners need be listed.
B1: FEM1A (protein, UniProt Q9BSK4 1-669)
chain: MDLRTAVYNAARDGKLQLLQKLLSGRSREELDELTGEVAGGGTPLLIAARYGHLDVVEYLVDRCGASVEAGGSVHFDGETIEGAPPLWAASAAGHLDVVRSLLRRGASVNRTTRTNSTPLRAACFDGHLEVVRYLVGEHQADLEVANRHGHTCLMISCYKGHREIARYLLEQGAQVNRRSAKGNTALHDCAESGSLEILQLLLGCKARMERDGYGMTPLLAASVTGHTNIVEYLIQEQPGQEQVAGGEAQPGLPQEDPSTSQGCAQPQGAPCCSSSPEEPLNGESYESCCPTSREAAVEALELLGATYVDKKRDLLGALKHWRRAMELRHQGGEYLPKPEPPQLVLAYDYSREVNTTEELEALITDPDEMRMQALLIRERILGPSHPDTSYYIRYRGAVYADSGNFERCIRLWKYALDMQQSNLEPLSPMTASSFLSFAELFSYVLQDRAAKGSLGTQIGFADLMGVLTKGVREVERALQLPREPGDSAQFTKALAIILHLLYLLEKVECTPSQEHLKHQTVYRLLKCAPRGKNGFTPLHMAVDKDTTNVGRYPVGRFPSLHVVKVLLDCGADPDSRDFDNNTPLHIAAQNNCPAIMNALIEAGAHMDATNAFKKTAYELLDEKLLARGTMQPFNYVTLQCLAARALDKNKIPYKGFIPEDLEAFIELH
B2: TKT (protein, UniProt P29401 1-623)
chain: MESYHKPDQQKLQALKDTANRLRISSIQATTAAGSGHPTSCCSAAEIMAVLFFHTMRYKSQDPRNPHNDRFVLSKGHAAPILYAVWAEAGFLAEAELLNLRKISSDLDGHPVPKQAFTDVATGSLGQGLGAACGMAYTGKYFDKASYRVYCLLGDGELSEGSVWEAMAFASIYKLDNLVAILDINRLGQSDPAPLQHQMDIYQKRCEAFGWHAIIVDGHSVEELCKAFGQAKHQPTAIIAKTFKGRGITGVEDKESWHGKPLPKNMAEQIIQEIYSQIQSKKKILATPPQEDAPSVDIANIRMPSLPSYKVGDKIATRKAYGQALAKLGHASDRIIALDGDTKNSTFSEIFKKEHPDRFIECYIAEQNMVSIAVGCATRNRTVPFCSTFAAFFTRAFDQIRMAAISESNINLCGSHCGVSIGEDGPSQMALEDLAMFRSVPTSTVFYPSDGVATEKAVELAANTKGICFIRTSRPENAIIYNNNEDFQVGQAKVVLKSKDDQVTVIGAGVTLHEALAAAELLKKEKINIRVLDPFTIKPLDRKLILDSARATKGRILTVEDHYYEGGIGEAVSSAVVGEPGITVTHLAVNRVPRSGKPAELLKMFGIDRDAIAQAVRGLITKA
B3: CRTAC1 (protein, UniProt Q9NQ79 28-661)
chain: SQRAEPMFTAVTNSVLPPDYDSNPTQLNYGVAVTDVDHDGDFEIVVAGYNGPNLVLKYDRAQKRLVNIAVDERSSPYYALRDRQGNAIGVTACDIDGDGREEIYFLNTNNAFSGVATYTDKLFKFRNNRWEDILSDEVNVARGVASLFAGRSVACVDRKGSGRYSIYIANYAYGNVGPDALIEMDPEASDLSRGILALRDVAAEAGVSKYTGGRGVSVGPILSSSASDIFCDNENGPNFLFHNRGDGTFVDAAASAGVDDPHQHGRGVALADFNRDGKVDIVYGNWNGPHRLYLQMSTHGKVRFRDIASPKFSMPSPVRTVITADFDNDQELEIFFNNIAYRSSSANRLFRVIRREHGDPLIEELNPGDALEPEGRGTGGVVTDFDGDGMLDLILSHGESMAQPLSVFRGNQGFNNNWLRVVPRTRFGAFARGAKVVLYTKKSGAHLRIIDGGSGYLCEMEPVAHFGLGKDEASSVEVTWPDGKMVSRNVASGEMNSVLEILYPRDEDTLQDPAPLECGQGFSQQENGHCMDTNECIQFPFVCPRDKPVCVNTYGSYRCRTNKKCSRGYEPNEDGTACVGTLGQSPGPRPTTPTAAAATAAAAAAAGAATAAPVLVDGDLNLGSVVKESCEPSC
B4: C2orf78 (protein, UniProt A6NCI8 1-922)
chain: MHWLASATQTSASIVSSSLLSAVDVSSSLTMSEYFQNTSLPGTANSRQFSLPVVSNAAFLTGSISNFSRASAPAISSAWLQPSASGTSFQPLMGSAYLYQHSSTTMLSGVTGQSHICTSAASYPGVFEWDSTASTVKKSSSLRDFTVTVIDQNTAVSSMSMTAQYYKTSDTNTMVPLYPSLSASLVQGTLTQIPNQQGHNLSLPCQIGSQVYYYNQGTLGPQLSCLQSYGSVSYTGYRASAHQPEMVMVLKEVQPTNVLPPVSTSGMYYSVSSQPITETSVQVMETSLGMDTSLGLQSPSQTFCLPQTPEFSKSFSSRNTQTLESNPSPELGDISITPVQSPTNLLTLSPAPSQEKNENENLDEIKTNLSKPLDVHQILIGNQDPPLLPVEIPDIHPLLACIDPLGQEEQPGSENANLRNKSLSLEDQGIFENGIESSSDLADITTWVEDTYLPPIFSSLQDLDQPESPSAKKAKDTSAIKVNQVQEKSCVIKGHSDQVRKNKHKASEPIQGAPKAKIQPKNPECLLEREVVVGSATVSNSASVNKAKHSSNKPHKAASSRISKTKSHGQEKTKGNRKNSSKKSEESKQSGKKVKVEEKQTIPNMKRKKNQPELSQKTLKKPRSSLGMHMLESVQVFHALGKKIDMKTGFSSSRTLGSSSNTQNRQPFPALKPWLDIQHEGKGPEKIQVKAQKLDGSAEKECTSPSHSELPPPGKVKLIPLPFLTLDQPQARHVSRRPNPLASRRPAVAYPARPDSTNSAQSNAVNPSRPAPTNTSLTGPATPAQPISAKATQPSSANPTQPTVPQSAASRPSAYKTSSCSSLQREPVSTAVTSLRSLPKPQNQFLIQDFSLQPRPWRKPTVPEPVMSTPITEEQRPEREAMKRKAQQERENAAKYTSLGKVQFFIERERDMEIAEYYGYTI
B5: CCDC129 (protein, UniProt Q6ZRS4 1-1044)
chain: MMAQKSQGSDNLQEGQEKSKREILKCTKSAWAPLDEWLPPDPEEESQSLTIPMLEDSKQESIQQWLDSGFFVSANENFQQVIDRTVSLYEQGMVQMTVKDYMRSLHQFSETPILSRGTSFNSCYSTASVPQSIPEWLEFWEIDPVEILLDLGFGADEPDICMQIPARFLGCGSAARGINIRVFLEAQKQRMDIENPNLYGRFRQLEILDHVTNAFSSLLSDVSILPNRAEEKAGGESVQRTSVSAAKEHRRRMGKLLRRASKQNIRRDCNPEVSESFKVKDEVFVPFTKPWDCGAELAATSINHKQNHLSLSVEHQSLQACDDLLPYPPHGLLSKQWPCSSMPAKQAPPSCVSEGSVKGRTQKENLFQTNKLKSLSHLAGKGPDSFEMEEVQSFEEETGNPLDMTSGTVGARVDRANSCQSDSSGFLEEPLEPLPLQMPSLPNSQSPAENGGRKPRDQSHSLVSSQDCQLESDGPDSKSRASMSFSSQEANALEQRASVSVMEEEFLLEAMEGPPELYIPDMACAKTTTRGECPRKDSHLWQLLPMPHAEYEVTRPTATSKYDHPLGFMVTHVTEMQDSFVRPEGAGKVQSHHNESQRSPGNDHTQDKFLHVDSEAPREEESSGFCPHTNHSLLVPESSSQCIPKHSEITPYATDLAQTSEKLIPHLHKLPGDPAQVKSRSGTLGQILPGTEAEMENLPLNTGSSRSVMTQMSSSLVSAAQRAVALGTGPRGTSLECTVCDPVTATETRLGTKARQLNDASIQTSALSNKTLTHGPQPLTKSVSLDSGFSSICPMGTCHAIPAHCCICCHHHPHCHGERQSPGPEPSVCRHCLCSLTGHQEAQFMTTLKALQDTTVRELCSCTVHEMEAMKTICQSFREYLEEIEQHLMGQQALFSRDMSEEEREEAEQLQTLREALRQQVAELEFQLGDRAQQIREGILLQLEVLTAEPPEHYSNLHQYNWIEESNGQTSCSKIHPGMAPRTVFPPDDGQEAPCSGGTQLAAFTPPTLENSTRMSPSSSAWAKLGPTPLSNCPVGEKDADVFL
B6: CCBL1 (protein, UniProt Q16773 1-422)
chain: MAKQLQARRLDGIDYNPWVEFVKLASEHDVVNLGQGFPDFPPPDFAVEAFQHAVSGDFMLNQYTKTFGYPPLTKILASFFGELLGQEIDPLRNVLVTVGGYGALFTAFQALVDEGDEVIIIEPFFDCYEPMTMMAGGRPVFVSLKPGPIQNGELGSSSNWQLDPMELAGKFTSRTKALVLNTPNNPLGKVFSREELELVASLCQQHDVVCITDEVYQWMVYDGHQHISIASLPGMWERTLTIGSAGKTFSATGWKVGWVLGPDHIMKHLRTVHQNSVFHCPTQSQAAVAESFEREQLLFRQPSSYFVQFPQAMQRCRDHMIRSLQSVGLKPIIPQGSYFLITDISDFKRKMPDLPGAVDEPYDRRFVKWMIKNKGLVAIPVSIFYSVPHQKHFDHYIRFCFVKDEATLQAMDEKLRKWKVEL
B7: MDH2 (protein, UniProt P40926 25-338)
chain: AKVAVLGASGGIGQPLSLLLKNSPLVSRLTLYDIAHTPGVAADLSHIETKAAVKGYLGPEQLPDCLKGCDVVVIPAGVPRKPGMTRDDLFNTNATIVATLTAACAQHCPEAMICVIANPVNSTIPITAEVFKKHGVYNPNKIFGVTTLDIVRANTFVAELKGLDPARVNVPVIGGHAGKTIIPLISQCTPKVDFPQDQLTALTGRIQEAGTEVVKAKAGAGSATLSMAYAGARFVFSLVDAMNGKEGVVECSFVKSQETECTYFSTPLLLGKKGIEKNLGIGKVSSFEEKMISDAIPELKASIKKGEDFVKTLK
B8: MIF (protein, UniProt P14174 1-115)
chain: MPMFIVNTNVPRASVPDGFLSELTQQLAQATGKPPQYIAVHVVPDQLMAFGGSSEPCALCSLHSIGKIGGAQNRSYSKLLCGLLAERLRISPDRVYINYYDMNAANVGWNNSTFA
B9: PRDX6 (protein, UniProt P30041 1-224)
chain: MPGGLLLGDVAPNFEANTTVGRIRFHDFLGDSWGILFSHPRDFTPVCTTELGRAAKLAPEFAKRNVKLIALSIDSVEDHLAWSKDINAYNCEEPTEKLPFPIIDDRNRELAILLGMLDPAEKDEKGMPVTARVVFVFGPDKKLKLSILYPATTGRNFDEILRVVISLQLTAEKRVATPVDWKDGDSVMVLPTIPEEEAKKLFPKGVFTKELPSGKKYLRYTPQP
B10: YWHAQ (protein, UniProt P27348 1-245)
chain: MEKTELIQKAKLAEQAERYDDMATCMKAVTEQGAELSNEERNLLSVAYKNVVGGRRSAWRVISSIEQKTDTSDKKLQLIKDYREKVESELRSICTTVLELLDKYLIANATNPESKVFYLKMKGDYFRYLAEVACGDDRKQTIDNSQGAYQEAFDISKKEMQPTHPIRLGLALNFSVFYYEILNNPELACTLAKTAFDEAIAELDTLNEDSYKDSTLIMQLLRDNLTLWTSDSAGEECDAAEGAEN

Chains of the proteins cited; added tags and fusions are not shown. Lines headed by an entry give the natural chain unless they say otherwise; changes in a name come on top.
UniProt Q9H239: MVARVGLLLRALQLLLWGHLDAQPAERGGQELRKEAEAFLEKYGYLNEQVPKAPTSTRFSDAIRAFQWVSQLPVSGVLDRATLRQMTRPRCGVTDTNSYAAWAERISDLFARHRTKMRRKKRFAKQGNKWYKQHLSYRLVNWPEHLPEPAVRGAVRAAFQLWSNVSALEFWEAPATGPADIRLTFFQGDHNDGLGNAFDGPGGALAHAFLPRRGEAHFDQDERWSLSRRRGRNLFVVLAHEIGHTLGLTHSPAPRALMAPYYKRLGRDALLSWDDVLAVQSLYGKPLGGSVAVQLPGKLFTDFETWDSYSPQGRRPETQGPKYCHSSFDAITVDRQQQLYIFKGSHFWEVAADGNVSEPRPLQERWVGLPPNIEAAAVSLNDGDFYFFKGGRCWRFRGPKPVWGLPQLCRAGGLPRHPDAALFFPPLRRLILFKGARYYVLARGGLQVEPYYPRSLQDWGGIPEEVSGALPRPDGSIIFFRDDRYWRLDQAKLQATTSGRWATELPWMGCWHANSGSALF

molecular target: matrix metalloproteinase 28 (MMP28) (human (endogenous in AsPC-1 and BxPC-3)) (UniProt Q9H239); test: affinity purification with mass spectrometry; BxPC-3 whole-cell lysate (enhanced RIPA buffer) incubated with MMP28 antibody or IgG control at 4 °C overnight, protein A/G agarose 3 h, five RIPA washes; LC-MS/MS; top 30 candidates listed

binding | Binder
binds | B1
binds | B2
binds | B3
binds | B4
binds | B5
binds | B6

molecular target: matrix metalloproteinase 28 (MMP28) (human (endogenous in AsPC-1 and BxPC-3)) (UniProt Q9H239); test: affinity purification with mass spectrometry; AsPC-1 whole-cell lysate (enhanced RIPA buffer) incubated with MMP28 antibody or IgG control at 4 °C overnight, protein A/G agarose 3 h, five RIPA washes; LC-MS/MS; top 30 candidates listed

binding | Binder
binds | B7
binds | B2
binds | B8
binds | B9
binds | B10

— publication PMC11837641
